Measurements reported in patent US9180163B2, “Parstatin peptides” (priority 2009, dated 2015).
Values joined by “and” are separate entries in the source; they are usually repeats but may differ in a detail not shown here. Identical values can stand only once. Like-named read-outs stand apart in the source and are kept apart here. At least one peptide structure holds a part that was inferred or is arguable (an end, a ring closure or a residue). Ends that are not written are not given here.

Tests used:
rat aortic rings = assay: rat aortic ring assay; settings: 10 μM; basal, VEGF- or bFGF-induced; 7 days
HUVEC cells [1] = assay: Fibrin gel in vitro angiogenesis assay; type: cell-based, human; settings: VEGF/bFGF-induced, 24 h; other peptides 10 μM
Description: The ability of endothelial cells to form three-dimensional structures was analyzed using a Fibrin gel in vitro angiogenesis assay kit (Chemicon International Inc. Temecula, Calif.). Fibrin gels were formed in 48-well plates by mixing fibrinogen and thrombin solutions, according to manufacturer instructions. Cells (40,000 cells/well) were then added and cultured in medium containing 2% FBS for 18 h. After the addition of a second layer of fibrin gel, endothelial cells sandwiched within fibrin gels were cultured in serum-free medium containing 0.5% bovine serum albumin (BSA) and the combination of VEGF/bFGF for 24 h. Where indicated, parstatin (1-41) or other indicated peptides were added. Capillary-like network was photographed and measured.

HUVEC cells [2] = assay: MTT cell proliferation assay; type: cell-based, human
Description: Cell proliferation was evaluated using a 3-(4,5-[…])-2,5-diphenyltetrazolium bromide (MTT, Sigma-Aldrich, St. Louis, Mo.) assay. Endothelial cells (10,000/well) were seeded in 24-well tissue culture plates and incubated with growth medium for 24 h. Cells were then treated with the vehicle or the indicated peptides in medium containing 5% FBS for 1 to 3 days. After 24, 48, or 72 hours, MTT solution (5 mg/ml) was added to each well and incubated for 3 h at 37° C. The blue formazan crystals were solubilized by addition of DMSO and absorbance at 450 nm was recorded using a 96-well plate reader.

[3] = system: Erk1/2 (p42/44 MAPK) in HUVEC cells; assay: Erk1/2 phosphorylation immunoblot (MAP kinase pathway); type: cell-based, human
Description: The MAPK (Erk1/2, p42/44) cascade mediates mitogenesis. […] HUVEC cells were cultured in 35 mm tissue culture dishes. After reaching 80% confluency, cells were growth factor-starved and subsequently stimulated for 10 min with vehicle or indicated agents. In combination experiments, cells were pretreated with parstatin or other peptides for 10 to 60 min.
Attached cells were lysed with Laenmli sample buffer, resolved in 10% SDS-PAGE, and transferred to nitrocellulose membranes. Membranes were incubated with primary antibodies against phospho p42/44 mitogen-activated protein kinases (p-Erk1/2, New England Biolabs, UK) and p42/44 Erk1/2 (t-Erk1/2, New England Biolabs, UK). Membranes were then probed with secondary antibodies horseradish peroxidase-conjugated, and proteins were visualized by chemiluminescent detection.

PARP in HUVEC cells = assay: Western blotting for PARP cleavage; type: cell-based, human; settings: 24 h
[4] = system: choroidal neovascularization in C57BL/6J mice; type: in vivo
Description: Parstatin (1-41), hydrophobic parstatin (1-26) fragment and hydrophilic parstatin (24-41) fragment were used in an in vivo mouse model of choroidal neovascularization. In particular, laser photocoagulation-induced rupture of Bruch's membrane was used to generate choroidal neovascularization as a preclinical disease model for age-related macular degeneration. Pathogen-free C57BL/6J (4-5 week-old) mice were treated in accordance with the Association for Research in Vision and Ophthalmology Statement for the Use of Animals in Ophthalmic and Vision Research and the guidelines of the Animal Care and Use Committee at local University Medical School.
C57BL/6J (4-5 week-old) mice were anesthetized with ketamine hydrochloride (100 mg/kg body weight) and xylazine-(4 mg/Kg body weight) and the pupils were dilated with 1% tropicamide. […] The eyes were then dissected and fixed in 10% Formalin for 3 hours and choroidal flat mounts were examined by fluorescence microscopy. […]
Intraocular injections of parstatin peptides were performed with a Harvard pump microinjection apparatus and pulled glass micropipets. […] Choroidal neovascularization was assessed 14 days after laser treatment.

[5] = system: corneas of Sprague-Dawley rats; assay: corneal histopathology after chemical burn (vessels, neutrophils); type: in vivo, rat; settings: 2×100 μg, day 7
Description: After the above-described processes were performed, the rats were sacrificed (7 days) and the eyes were excised. All eyes were sectioned (4 μm) and stained with hematoxylin-eosin. Two independent pathologists, in a blinded manner, evaluated the microvessel density and the inflammatory cell infiltration in each slide. Total corneal vascular vessels and neutrophils were counted at 200× in seven representative stained tissue sections for each eye, covering all cornea area and having a similar distance from the central burn.

isolated rat hearts = assay: isolated rat heart ischemia-reperfusion under constant flow; settings: 1 μM
rat coronary arterioles = assay: coronary arteriole vasodilation, organ bath videomicroscopy
[6] = system: renal ischemia-reperfusion injury in Wistar rats
[7] = parstatin (1-41) IV 10 seconds after initiation of reperfusion

## MGPRRLLLVAACFSLCGPLLSARTRARRPESKATNATLDPR (cysteines drawn unpaired) [parstatin (1-41)]
Rat aortic rings
  microvessel formation: complete inhibition
HUVEC cells [1]
  capillary-like network (total capillary tube length) in fibrin gels: significantly reduced
HUVEC cells [2]; 10 μM
  HUVEC cell proliferation: essentially blocked
HUVEC cells [2]; cell growth stimulated by VEGF or bFGF, read-out: half-maximal inhibitory concentration, cell growth
  IC50: 1000 nM
HUVEC cells [2]; medium with 5% FBS, up to 72 h, read-out: half-maximal inhibitory concentration, cell proliferation
  IC50: ~3000 nM
[3]; 10 min exposure, 10 μM, bFGF
  inhibition of Erk1/2 activation, of the maximum: about 50%
[3]; 1 h exposure, washed, 1 to 3 hours in fresh medium, bFGF
  reversibility of blockage of Erk1/2 phosphorylation: almost completely reversible
[3]; pretreatment 1 h
  concentration from which bFGF-induced Erk1/2 phosphorylation is essentially blocked: 3 µM
PARP in HUVEC cells; bFGF
  PARP cleavage in bFGF-stimulated endothelial cells: increased PARP cleavage
PARP in HUVEC cells; serum free medium with BSA
  PARP cleavage to 85-kDa fragment: induced PARP cleavage
[4]; 10 μg intravitreal after laser and day 7, assessed day 14, vs vehicle (PBS or DMSO)
  inhibition of choroidal neovascularization: 58% and 59%
[4]; 30 μg intravitreal
  choroidal neovascularization, benefit over 10 μg dose: did not provide additional benefit
[5]
  mean number (density) of vascular vessels per section: 32.14±1.73
  numbers of neutrophils: 6.9±0.57 cells/corneal section
  reduction of mean density of vascular vessels: 57%
Isolated rat hearts; constant flow
  coronary perfusion pressure during ischemia-reperfusion: 114±4 % pre-ischemic values
Isolated rat hearts; constant-flow conditions, 180 min reperfusion
  infarct size: 26±2 % area at risk
Rat coronary arterioles; 1-1000 nM, arterioles pre-constricted with endothelin-1
  ED50 of dilation: nanomolar range
Rat coronary arterioles; L-NMA
  vasodilation after pre-treatment with L-NMA: abolished
Rat coronary arterioles; ODQ
  vasodilation with ODQ: did not significantly reduce
Rat coronary arterioles; ODQ and glibenclamide
  vasodilation with the combination of ODQ and glibenclamide: additive effect to prevent
Rat coronary arterioles; denuded vessels
  vasodilation of endothelium denuded vessels: did not vasodilate
Rat coronary arterioles; glibenclamide
  vasodilation with glibenclamide: reduced significantly
[6]; 30 μg/Kg
  histological score of renal injury: significantly reduced
[6]; 30 μg/Kg IV 15 min prior to ischemia
  reduction of FENa: 63% and 61%
[6]; 30 μg/Kg IV 15 min prior to ischemia, 45 min ischemia, 4 hours reperfusion
  reduction of serum creatinine: 22.5% and 20%
[6]; [7]
  reduction of FENa: 58%
  reduction of serum creatinine: 23.3%
